Data from the primary screen of doi:10.1371/journal.pone.0140310, rounded.

Drug key:
tanespimycin, 0.01 µM: C=CCNC1=C2C[C@@H](C)C[C@H](OC)[C@H](O)[C@@H](C)/C=C(\C)[C@H](OC(N)=O)[C@@H](OC)/C=C\C=C(/C)C(=O)NC(=CC1=O)C2=O
nilotinib, 1 µM: Cc1cn(-c2cc(NC(=O)c3ccc(C)c(Nc4nccc(-c5cccnc5)n4)c3)cc(C(F)(F)F)c2)cn1
SNS-032, 0.05 µM: CC(C)(C)c1cnc(CSc2cnc(NC(=O)C3CCNCC3)s2)o1
dasatinib, 0.02 µM: Cc1nc(Nc2ncc(C(=O)Nc3c(C)cccc3Cl)s2)cc(N2CCN(CCO)CC2)n1
erlotinib, 4 µM: C#Cc1cccc(Nc2ncnc3cc(OCCOC)c(OCCOC)cc23)c1

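Human melanoma cell lines in 1,536-well plates were treated with two drugs together for 72 h, then fixed, stained and imaged. Each value is the cleaved-PARP-positive fraction of nuclei relative to DMSO-treated wells, in %, so that 100 equals the control and higher values mean more apoptosis. Every drug was used at one fixed concentration, the higher of two screened. No replicate spread is given; individual values may be noisy. The marker varies much from line to line, for technical or biological reasons.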 An unselected part of the screen is shown. An entry leaves out what has no value listed here.

For nilotinib + dasatinib the values were COLO 792: 84.6; C32: 203; WM3619: 104; LB2518-MEL: 84.2; MEL-HO: 89.2; A375: 104; WM1745: 209; RPMI-7951: 307; RVH-421: 253; A101D: 37.6; WM115: 825; COLO 829: 60.6; UACC-257: 33.6; WM1716: 105; LOX IMVI: 710; MeWo: 117; WM3526: 62.8; MZ2-MEL: 242; SK-MEL-5: 25.5; G-361: 49.8; SK-MEL-30: 45.4; SK-MEL-2: 92.4; IST-MEL1: 230; UACC-62: 149; COLO 800: 159; WM451Lu: 168; A2058: 174; SK-MEL-28: 59.2; IPC-298: 62.5.
For erlotinib + SNS-032 the values were COLO 792: 230; C32: 170; WM3619: 90.2; LB2518-MEL: 182; MEL-HO: 79.8; WM1745: 166; RPMI-7951: 172; RVH-421: 306; A101D: 519; WM115: 58.2; COLO 829: 122; UACC-257: 134; WM1716: 42.2; LOX IMVI: 292; MeWo: 88.6; WM3526: 124; MZ2-MEL: 174; SK-MEL-5: 180; G-361: 131; SK-MEL-30: 35.7; SK-MEL-2: 268; IST-MEL1: 173; UACC-62: 188; COLO 800: 68.0; WM451Lu: 63.9; A2058: 169; SK-MEL-28: 215; IPC-298: 78.2.
For erlotinib + tanespimycin the values were COLO 792: 596; C32: 469; WM3619: 144; LB2518-MEL: 653; MEL-HO: 148; A375: 74.2; WM1745: 238; RPMI-7951: 547; RVH-421: 90.5; A101D: 100; WM115: 1610; COLO 829: 311; UACC-257: 82.1; WM1716: 64.2; LOX IMVI: 51.8; MeWo: 242; WM3526: 234; MZ2-MEL: 597; SK-MEL-5: 215; G-361: 355; SK-MEL-30: 129; SK-MEL-2: 285; IST-MEL1: 142; UACC-62: 289; COLO 800: 63.3; WM451Lu: 114; A2058: 249; SK-MEL-28: 1270; IPC-298: 304.
For tanespimycin + nilotinib the values were COLO 792: 149; C32: 579; WM3619: 125; LB2518-MEL: 354; MEL-HO: 105; A375: 77.3; WM1745: 166; RPMI-7951: 530; RVH-421: 124; A101D: 78.7; WM115: 750; COLO 829: 166; UACC-257: 79.3; WM1716: 39.4; LOX IMVI: 70.5; MeWo: 177; WM3526: 258; MZ2-MEL: 216; SK-MEL-5: 116; G-361: 479; SK-MEL-30: 74.5; SK-MEL-2: 130; IST-MEL1: 579; UACC-62: 242; COLO 800: 38.9; WM451Lu: 287; A2058: 154; SK-MEL-28: 88.2; IPC-298: 157.
For SNS-032 + dasatinib the values were COLO 792: 165; C32: 855; WM3619: 86.6; LB2518-MEL: 126; MEL-HO: 77.4; WM1745: 200; RPMI-7951: 715; RVH-421: 322; A101D: 137; WM115: 320; COLO 829: 165; UACC-257: 74.0; WM1716: 538; LOX IMVI: 1450; MeWo: 104; WM3526: 69.0; MZ2-MEL: 444; SK-MEL-5: 69.5; G-361: 58.7; SK-MEL-30: 76.9; SK-MEL-2: 200; IST-MEL1: 72.5; UACC-62: 171; COLO 800: 86.7; WM451Lu: 310; A2058: 115; SK-MEL-28: 59.7; IPC-298: 60.6.
For nilotinib + erlotinib the values were COLO 792: 309; C32: 91.0; WM3619: 127; LB2518-MEL: 186; MEL-HO: 104; A375: 37.6; WM1745: 140; RPMI-7951: 403; RVH-421: 133; A101D: 209; WM115: 125; COLO 829: 90.4; UACC-257: 67.7; WM1716: 247; LOX IMVI: 72.3; MeWo: 115; WM3526: 187; MZ2-MEL: 156; SK-MEL-5: 379; G-361: 162; SK-MEL-30: 15.1; SK-MEL-2: 122; IST-MEL1: 124; UACC-62: 178; COLO 800: 60.5; WM451Lu: 45.9; A2058: 138; SK-MEL-28: 113; IPC-298: 132.
For erlotinib + dasatinib the values were COLO 792: 212; C32: 456; WM3619: 136; LB2518-MEL: 311; MEL-HO: 137; A375: 170; WM1745: 328; RPMI-7951: 345; RVH-421: 245; A101D: 235; WM115: 1590; COLO 829: 117; UACC-257: 49.7; WM1716: 134; LOX IMVI: 109; MeWo: 126; WM3526: 159; MZ2-MEL: 217; SK-MEL-5: 380; G-361: 134; SK-MEL-30: 152; SK-MEL-2: 160; IST-MEL1: 177; UACC-62: 366; COLO 800: 120; WM451Lu: 68.5; A2058: 536; SK-MEL-28: 69.5; IPC-298: 392.
For tanespimycin + SNS-032 the values were COLO 792: 235; C32: 886; WM3619: 133; LB2518-MEL: 91.3; MEL-HO: 76.0; WM1745: 232; RPMI-7951: 248; RVH-421: 63.7; A101D: 345; WM115: 941; COLO 829: 167; UACC-257: 95.0; WM1716: 146; LOX IMVI: 143; MeWo: 220; WM3526: 176; MZ2-MEL: 371; SK-MEL-5: 51.7; G-361: 408; SK-MEL-30: 113; SK-MEL-2: 303; IST-MEL1: 112; UACC-62: 178; COLO 800: 70.1; WM451Lu: 276; A2058: 164; SK-MEL-28: 122; IPC-298: 139.